The supplement of paper PMC10338343
± gives the standard deviation. The list shows a part of the results, in another mix than the full data. Many entries were measured with a wide error.

System: MILI (PIWIL2) piRISC loaded with L1MC piRNA (26 nt)
Test: pre-steady-state target cleavage rate (min^-1); MIWI and MILI are mouse PIWI proteins and EfPiwi is from a freshwater sponge; tags in brackets are library labels; higher = faster piRNA-guided slicing of the target
Conditions: guide: L1MC piRNA 5'p-UAACUAAAUACUAUGCAAGCUGUAGG; auxiliary factor: 500 nM mouse GTSF1
Protocol: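 Cleave-'n-Seq: a library of target RNAs (target site embedded in constant flanks, ACAGCATTCCGCGTTAGTGATATCCG... 5' flank; DNA-blocked outside the site) at 0.1 nM was incubated with 1 nM active mouse MILI or MIWI piRISC (synthetic 5'-monophosphorylated piRNA guide) with or without 500 nM mouse GTSF1 at 33 °C for 1 min to 16 h. Uncleaved targets were sequenced and normalised to non-target controls, and the pooled three trials were fitted to a burst-and-steady-state model to give the pre-steady-state cleavage rate (min^-1; k3 is constrained to at most 1e-4). Sequence is the target site only; target names encode pairing extent (gX:gY) and contiguous / 1-mismatch / 2-mismatch / bulge geometry. Fits with R² ≤ 0 are excluded.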

| Sequence | pre-steady-state target cleavage rate |
| --- | --- |
| UCCUGGAUGAGCUUGCAAAGUAAUUAGUUA | 0.0348 ± 0.0091 |
| UCCUGGAUCAGCUUGCAUAAGUAUUUAGUUA | 0.00234 ± 0.0063 |
| UCCUGGUACAGCUUGCAUAGUAUUUUGAUA | 0.0966 ± 0.025 |
| UCCUCCUACAGCUUGGCAUAGUAUUUAGUUA | 0.338 ± 0.057 |
| UCCUGGAUGUCCUUGCAUAGUAUUGAGUUA | 0.0563 ± 0.019 |
| UCCUGGAUGUCGAACCAUUAGUAUUUAGUUA | 0.000225 ± 0.011 |
| UCCUGGUGACAGCUUGCAUAGUAUUUAGUUA | 0.507 ± 0.044 |
| UCCUGGAUGUGCUUGCAUAGUAUUUUGAUA | 0.0122 ± 0.0054 |
| UCCUGGAUGUCGUUGCAUAGUAUUUACAUA | 0.00165 ± 0.0067 |
| UCCUGGAUCAGCUUGCAUAGUAUUUAGUUUA | 0.358 ± 0.025 |
| UCCUGGUUCAGCUUGCAAAGUAUUUAGUUA | 0.137 ± 0.018 |
| UCCUCCUACAGCUUGCAAAGUAUUUUGUUA | 0.0808 ± 0.011 |
| UCCUGGAUGUCGUUGCAUAGUAUUUAGUCUA | 0.013 ± 0.0062 |
| UCCUGGAUGUCCUUGCAUAGUUUUAGUUA | 0.00136 ± 0.0095 |
| UCCUGGAUGUCGAAGCAUAGUAUUUAGAUA | 0.00991 ± 0.0044 |
| UCCUGGAACAGCUUGCGUAGUAUUUAGUUA | 0.277 ± 0.016 |

Same assay, conditions: guide: L1MC piRNA 5'p-UAACUAAAUACUAUGCAAGCUGUAGG; auxiliary factor: none (no GTSF1)

| Sequence | pre-steady-state target cleavage rate |
| --- | --- |
| UCCUGGAUGAGCUUGCAAAGUAAUUAGUUA | 0.00244 ± 0.0041 |
| UCCUGGAUCAGCUUGCAUAAGUAUUUAGUUA | 0.00118 ± 0.0046 |
| UCCUGGUACAGCUUGCAUAGUAUUUUGAUA | 0.00208 ± 0.0056 |
| UCCUCCUACAGCUUGGCAUAGUAUUUAGUUA | 0.00447 ± 0.0021 |
| UCCUGGAUGUCCUUGCAUAGUAUUGAGUUA | 0.00138 ± 0.0053 |
| UCCUGGAUGUGCUACCAUAGUAUUUAGAAA | 0.000289 ± 0.014 |
| UCCUGGAUGUCCUUGCUUAGAAUUUAGUUA | 0.00198 ± 0.0038 |
| UCCUGGAUGUCGAACCAUAGUAAAAAGUUA | < 0.0001 |
| UCCUGGAUGUCGAAGCAUACUAAUUAGUUA | 0.000254 ± 0.019 |
| UCCUGGAUGUCGAACCAUUAGUAUUUAGUUA | < 0.0001 |
| UCCUGGAUGUGCUUGCAUAGUAUUUUGAUA | 0.00139 ± 0.0051 |
| UCCUGGAUGUCGAUGCAUAGUAUUUAGAUUA | 0.000999 ± 0.0056 |
| UCCUGGAUGUCGUUGCAUAGUAUUUACAUA | 0.000617 ± 0.0097 |
| UCCUGGAACAGCUUGCAUUAGUAUUUAGUUA | 0.00137 ± 0.0043 |
| UCCUCCUACAGCUUGGAUAGUAUUUACUUA | 0.00154 ± 0.0034 |
| UCCUGGAUCAGCUUGCAUAGUAUUUAGUUUA | 0.00718 ± 0.0026 |
| UCCUGGUUCAGCUUGCAAAGUAUUUAGUUA | 0.0176 ± 0.0038 |
| UCCUGGUACAGCAACCAUAGUAUUUACAAA | 0.000641 ± 0.01 |
| UCCUCCUACAGCUUGCAAAGUAUUUUGUUA | 0.00215 ± 0.0028 |
| UCCUGGAUGUCGUUGCAUAGUAUUUAGUCUA | 0.00433 ± 0.0036 |
| UCCUGGAUGUCCUUGCAUAGUUUUAGUUA | 0.000814 ± 0.0055 |
| UCCUGGAUGUCGAAGCAUAGUAUUUAGAUA | 0.00147 ± 0.0033 |
| UCCUCCUACUGCUUGCAUAGUAUUUAGUAA | 0.00235 ± 0.0025 |
| UCCUGGAACAGCUUGCGUAGUAUUUAGUUA | 0.00716 ± 0.0018 |
